# Assay results published in PubChem BioAssay AID2551 (National Center for Advancing Translational Sciences (NCATS), 2010).
# Sequences of proteins named here, by UniProt entry; tags and fusion partners are left off. A change or cut given only in a name is not applied to a line headed by its entry.
# UniProt P51450: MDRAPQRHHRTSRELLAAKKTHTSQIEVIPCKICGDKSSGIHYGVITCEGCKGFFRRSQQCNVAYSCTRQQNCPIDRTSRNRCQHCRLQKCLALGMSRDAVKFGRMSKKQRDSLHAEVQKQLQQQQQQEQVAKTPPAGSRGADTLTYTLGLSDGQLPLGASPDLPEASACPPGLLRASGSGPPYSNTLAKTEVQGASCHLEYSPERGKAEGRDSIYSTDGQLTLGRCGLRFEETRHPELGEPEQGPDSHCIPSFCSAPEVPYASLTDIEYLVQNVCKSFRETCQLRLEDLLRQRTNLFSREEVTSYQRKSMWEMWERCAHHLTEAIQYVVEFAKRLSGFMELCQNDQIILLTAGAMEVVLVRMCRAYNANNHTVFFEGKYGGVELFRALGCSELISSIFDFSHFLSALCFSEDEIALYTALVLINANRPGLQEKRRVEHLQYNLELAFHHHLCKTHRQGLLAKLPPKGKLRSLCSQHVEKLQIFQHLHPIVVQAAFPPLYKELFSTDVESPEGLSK
# Among all 310,000 compounds or so, about 17,000 (5.5%) were called active. The shares of active, inactive and inconclusive entries below differ from those in the screen. Calls follow the shape of the dose curve; as a rule, active = well fitted inhibition curve with a large enough effect; inconclusive = small, poorly fitted or top-dose-only effect, or effect the other way; inactive = no such curve, though single readings can be large or run the other way. Potencies of inconclusive entries are doubtful fits and often do not repeat.
# Molecular target: Nuclear receptor ROR-gamma (Mus musculus) (UniProt P51450)
# Test: qHTS for inhibitors of ROR gamma transcriptional activity; also: nearly all actives have a fitted effect of over 60% in size
# Settings: Drosophila S2 Gal4-RORgamma UAS-luciferase reporter, 20 h; activity change, negative = inhibition: at 53.6 µM (top of the series)
# Method in brief: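 Schneider cells (Drosophila), stable Gal4 DBD–ROR gamma + UAS-luc; 1 hr cmpd preincubation; Cu2+ induction 700 uM final; 20 hr ambient; luminescence.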
# % is scaled to controls: 0 for no effect and ±100 for the full control effect; potency is read from the fitted curve at half-maximal effect.
SMILES,Potency,"activity change, negative = inhibition"
Cc1ccc(C(=O)c2ccccc2C(=O)OCC(=O)Nc2cccc([N+](=O)[O-])c2)cc1,"inconclusive: 35.5 µM [activator, single point]",
CNC(=O)c1[nH]cnc1C(=O)Nc1ccc(C)cc1,active: 3.98 µM,
Cc1sc(NC(=S)NC(=O)c2ccco2)c(C#N)c1C,"inconclusive: 15.8 µM [inhibitor, partial curve]",
CCCN(CC1COc2ccccc2O1)C(=S)Nc1ccc(C)cc1 (configuration not stated),active: 15.8 µM,
COC(=O)CCS(=O)(=O)c1ccc(Cl)cc1,,inactive: 10.8%
CC1CCc2cccc3c2N1c1cc(C#N)c(C#N)cc1O3 (configuration not stated),,inactive: 25.3%
O=C(N/N=C/c1cccs1)c1cc(-c2cccc3ccccc23)n[nH]1,active: 5.01 µM,
COc1ccccc1CP(=O)(c1ccccc1)c1ccccc1,"inconclusive: 8.91 µM [activator, partial curve, poor fit]",
CCN(CC)c1ccc(NC(=O)c2c(OC)cccc2OC)c(C)c1,,inactive: 0.347%
O=C(NCC(=O)N1CCN(C(c2ccccc2)c2ccccc2)CC1)c1ccc(Br)o1,,inactive: -8.28%
CC(/C=C/c1ccc2c(c1)OCO2)=N\NC(=O)c1ccccc1,active: 5.62 µM,
COc1ccc(Cn2cnc3c(NS(C)(=O)=O)c(C)c(C)cc32)cc1,"inconclusive: 1.26 µM [activator, full curve, poor fit]",
Cc1ccc(S(=O)(=O)c2cc3c(=O)n4ccccc4nc3n(Cc3ccco3)c2=N)cc1C,"inconclusive: 35.5 µM [inhibitor, single point]",
CCOc1ccc(S(=O)(=O)n2cnc3cc(C)c(C)cc32)cc1,"inconclusive: 35.5 µM [activator, single point]",
CC(C)(C)c1ccc(S(=O)(=O)N2CCCCC2)cc1,,inactive: 18.4%
COC(=O)[C@@]1(Cc2ccccc2)[C@H]2c3cc(C(=O)N(C)C)n(C[C@H](O)CO)c3C[C@H]2CN1C(=O)c1ccccc1,,inactive: -4.58%
Cc1cc2cc(CNC(=O)Nc3cccc(Cl)c3)ccc2n1C,"inconclusive: 22.4 µM [activator, single point]",
CSc1ccc(S(=O)(=O)Nc2ccc(OCC(=O)N3CCOCC3)cc2)cc1,,inactive: -5.84%
O=C(Nn1cc(C(=O)Nc2ccccc2F)c2ccccc2c1=O)c1cnccn1,"inconclusive: 17.8 µM [inhibitor, single point]",
CC(NC(=S)NC1CCC(C(C)(C)C)CC1)c1ccccc1 (configuration not stated),active: 1.58 µM,
O=C(CC1CCCCC1)NCCOc1ccccc1,"inconclusive: 35.5 µM [activator, single point]",
O=C(NC(=S)Nc1ccc(S(=O)(=O)Nc2nccs2)cc1)c1ccccc1F,"inconclusive: 28.2 µM [activator, partial curve]",

# 2 entries picked at random from the list so far:
SMILES,Potency,"activity change, negative = inhibition"
O=C(CC1CCCCC1)NCCOc1ccccc1,"inconclusive: 35.5 µM [activator, single point]",
O=C(N/N=C/c1cccs1)c1cc(-c2cccc3ccccc23)n[nH]1,active: 5.01 µM,
